Assay results from PMC12080386.
No constants are given. Whether binding was seen depends on the method and setting. In cells and extracts the contact can be indirect. Some binding calls cover weakened binding; strength is not graded here. For some of these results: Where a sequence is shown, tags or fusion partners need not be part of it. Values belong to the binder of their own block, whether it stands above or below them.

How the values were obtained:
SIRT4-HA (human) = target: T1, SIRT4-HA (human) (UniProt Q9Y6E7); test: co-IP; 293FT cells transiently transfected with SIRT4-HA and MCCC2-Flag; anti-HA or anti-Flag M2 affinity gel, overnight at 4 °C; Western blot
T1 sequence: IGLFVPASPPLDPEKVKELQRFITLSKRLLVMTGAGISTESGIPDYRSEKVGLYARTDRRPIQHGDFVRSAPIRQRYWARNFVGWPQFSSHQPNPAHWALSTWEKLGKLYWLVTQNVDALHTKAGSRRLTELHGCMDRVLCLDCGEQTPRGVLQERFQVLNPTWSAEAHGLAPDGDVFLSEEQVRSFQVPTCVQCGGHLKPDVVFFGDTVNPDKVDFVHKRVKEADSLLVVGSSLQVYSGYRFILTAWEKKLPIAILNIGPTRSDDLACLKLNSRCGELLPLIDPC

[1] = target: T2, SIRT4, endogenous in Hep-12 cells (human (endogenous in Hep-12)) (UniProt Q9Y6E7); test: co-IP; endogenous proteins in Hep-12 cells; lysis buffer 1% NP-40, 150 mM NaCl, 5 mM EDTA, 50 mM Tris·HCl pH 7.4; antibodies against SIRT4 or MCCC2 or control IgG at 4 °C overnight, protein A/G beads; Western blot
T2 sequence: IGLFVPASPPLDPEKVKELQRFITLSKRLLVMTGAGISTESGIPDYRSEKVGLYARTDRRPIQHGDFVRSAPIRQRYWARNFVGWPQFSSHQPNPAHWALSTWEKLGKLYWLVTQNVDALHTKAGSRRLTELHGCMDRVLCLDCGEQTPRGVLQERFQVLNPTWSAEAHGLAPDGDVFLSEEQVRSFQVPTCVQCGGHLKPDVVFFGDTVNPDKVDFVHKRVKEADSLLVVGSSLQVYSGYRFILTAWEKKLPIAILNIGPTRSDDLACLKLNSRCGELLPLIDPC

[2] = target: T3, MCCC2^WT (sgRNA-resistant wild type MCCC2) (human) (UniProt Q9HCC0); test: co-IP; MCCC2 immunoprecipitated from endogenous MCCC2-KO cells ectopically expressing MCCC2^WT, MCCC2^K269R or MCCC2^K269Q; Western blot with the antibody against MCCC1
T3 sequence: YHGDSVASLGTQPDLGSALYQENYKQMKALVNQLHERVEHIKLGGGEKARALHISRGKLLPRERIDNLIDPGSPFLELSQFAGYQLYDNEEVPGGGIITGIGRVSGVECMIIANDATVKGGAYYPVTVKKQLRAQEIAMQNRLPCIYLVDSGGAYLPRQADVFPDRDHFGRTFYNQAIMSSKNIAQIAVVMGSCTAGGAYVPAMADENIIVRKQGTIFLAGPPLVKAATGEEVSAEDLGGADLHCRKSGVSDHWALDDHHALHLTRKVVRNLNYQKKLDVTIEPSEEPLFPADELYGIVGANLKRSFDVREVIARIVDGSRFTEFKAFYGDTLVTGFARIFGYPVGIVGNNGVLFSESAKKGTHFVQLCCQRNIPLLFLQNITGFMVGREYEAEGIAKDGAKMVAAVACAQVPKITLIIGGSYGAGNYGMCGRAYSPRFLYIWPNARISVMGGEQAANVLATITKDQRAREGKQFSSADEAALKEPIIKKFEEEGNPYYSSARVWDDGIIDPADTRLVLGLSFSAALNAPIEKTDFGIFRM

[3] = target: T4, MCCC2^K269R (sgRNA-resistant deacetylated mimetic mutant) (human) (UniProt Q9HCC0); test: as above
T4 sequence: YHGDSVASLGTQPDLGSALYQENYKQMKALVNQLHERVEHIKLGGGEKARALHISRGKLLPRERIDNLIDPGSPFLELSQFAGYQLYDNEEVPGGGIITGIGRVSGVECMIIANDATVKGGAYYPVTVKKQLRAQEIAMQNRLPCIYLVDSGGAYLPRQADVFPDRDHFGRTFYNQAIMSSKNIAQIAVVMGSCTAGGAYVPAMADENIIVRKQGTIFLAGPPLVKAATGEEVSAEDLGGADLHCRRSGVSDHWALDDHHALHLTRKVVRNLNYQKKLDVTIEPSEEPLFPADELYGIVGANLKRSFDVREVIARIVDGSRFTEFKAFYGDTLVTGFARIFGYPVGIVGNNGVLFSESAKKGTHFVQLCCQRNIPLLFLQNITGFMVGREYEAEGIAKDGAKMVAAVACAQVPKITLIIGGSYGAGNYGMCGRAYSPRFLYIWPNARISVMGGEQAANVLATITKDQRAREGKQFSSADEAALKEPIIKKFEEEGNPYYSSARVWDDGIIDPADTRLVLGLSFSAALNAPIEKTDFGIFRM

[4] = target: T5, MCCC2^K269Q (sgRNA-resistant acetylated mimetic mutant) (human) (UniProt Q9HCC0); test: as above
T5 sequence: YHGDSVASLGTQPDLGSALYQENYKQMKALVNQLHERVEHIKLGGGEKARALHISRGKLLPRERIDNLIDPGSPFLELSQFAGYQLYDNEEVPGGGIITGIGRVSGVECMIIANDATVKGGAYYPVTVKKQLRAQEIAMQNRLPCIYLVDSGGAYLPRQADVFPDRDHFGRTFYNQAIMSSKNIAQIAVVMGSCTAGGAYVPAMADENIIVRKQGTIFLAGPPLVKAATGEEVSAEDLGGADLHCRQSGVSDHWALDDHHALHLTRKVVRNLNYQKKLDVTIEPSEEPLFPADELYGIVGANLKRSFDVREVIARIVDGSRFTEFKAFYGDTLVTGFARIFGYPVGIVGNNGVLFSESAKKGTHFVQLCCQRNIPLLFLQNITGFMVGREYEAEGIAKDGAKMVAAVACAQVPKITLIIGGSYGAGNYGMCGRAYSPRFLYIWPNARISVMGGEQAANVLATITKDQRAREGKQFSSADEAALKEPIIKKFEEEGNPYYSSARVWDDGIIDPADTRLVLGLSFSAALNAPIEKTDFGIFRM

MCCC2-Flag (human) = target: T6, MCCC2-Flag (human) (UniProt Q9HCC0); test: co-IP; 293FT cells transiently transfected with SIRT4-HA and MCCC2-Flag; anti-HA or anti-Flag M2 affinity gel, overnight at 4 °C; Western blot
T6 sequence: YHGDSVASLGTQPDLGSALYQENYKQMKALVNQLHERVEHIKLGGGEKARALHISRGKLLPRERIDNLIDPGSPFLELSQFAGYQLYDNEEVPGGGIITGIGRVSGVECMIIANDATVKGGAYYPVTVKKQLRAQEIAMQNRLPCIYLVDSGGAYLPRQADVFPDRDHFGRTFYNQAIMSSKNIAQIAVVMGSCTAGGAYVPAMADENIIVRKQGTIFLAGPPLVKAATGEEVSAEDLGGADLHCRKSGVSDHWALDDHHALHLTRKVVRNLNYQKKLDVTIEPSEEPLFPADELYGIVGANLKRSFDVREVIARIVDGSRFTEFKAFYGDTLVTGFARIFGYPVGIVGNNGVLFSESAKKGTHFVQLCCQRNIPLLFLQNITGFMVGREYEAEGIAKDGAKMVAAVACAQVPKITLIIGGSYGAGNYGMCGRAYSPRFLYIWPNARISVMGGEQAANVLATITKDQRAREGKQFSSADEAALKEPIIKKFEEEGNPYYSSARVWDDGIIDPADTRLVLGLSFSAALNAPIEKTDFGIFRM

[5] = target: T7, 3-methylcrotonyl-CoA carboxylase 2 (MCCC2), endogenous in Hep-12 cells (human (endogenous in Hep-12)) (UniProt Q9HCC0); test: co-IP; endogenous proteins in Hep-12 cells; lysis buffer 1% NP-40, 150 mM NaCl, 5 mM EDTA, 50 mM Tris·HCl pH 7.4; antibodies against SIRT4 or MCCC2 or control IgG at 4 °C overnight, protein A/G beads; Western blot
T7 sequence: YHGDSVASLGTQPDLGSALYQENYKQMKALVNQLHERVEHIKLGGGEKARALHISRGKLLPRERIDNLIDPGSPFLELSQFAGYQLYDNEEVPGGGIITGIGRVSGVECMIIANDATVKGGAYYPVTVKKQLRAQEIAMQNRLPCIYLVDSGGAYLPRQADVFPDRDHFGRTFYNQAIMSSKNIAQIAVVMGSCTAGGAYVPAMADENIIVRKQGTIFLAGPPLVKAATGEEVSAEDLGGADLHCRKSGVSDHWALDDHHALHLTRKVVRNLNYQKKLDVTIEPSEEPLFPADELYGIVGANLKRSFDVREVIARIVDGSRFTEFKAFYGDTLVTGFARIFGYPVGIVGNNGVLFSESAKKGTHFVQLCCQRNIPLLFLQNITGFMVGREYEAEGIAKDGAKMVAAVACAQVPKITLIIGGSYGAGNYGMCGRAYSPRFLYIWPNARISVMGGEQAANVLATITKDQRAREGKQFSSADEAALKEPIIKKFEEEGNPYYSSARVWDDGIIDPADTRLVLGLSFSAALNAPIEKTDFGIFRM

binding (SIRT4-HA (human)): binds
B1: MCCC2-Flag (enzyme, UniProt Q9HCC0 23-563)
chain: YHGDSVASLGTQPDLGSALYQENYKQMKALVNQLHERVEHIKLGGGEKARALHISRGKLLPRERIDNLIDPGSPFLELSQFAGYQLYDNEEVPGGGIITGIGRVSGVECMIIANDATVKGGAYYPVTVKKQLRAQEIAMQNRLPCIYLVDSGGAYLPRQADVFPDRDHFGRTFYNQAIMSSKNIAQIAVVMGSCTAGGAYVPAMADENIIVRKQGTIFLAGPPLVKAATGEEVSAEDLGGADLHCRKSGVSDHWALDDHHALHLTRKVVRNLNYQKKLDVTIEPSEEPLFPADELYGIVGANLKRSFDVREVIARIVDGSRFTEFKAFYGDTLVTGFARIFGYPVGIVGNNGVLFSESAKKGTHFVQLCCQRNIPLLFLQNITGFMVGREYEAEGIAKDGAKMVAAVACAQVPKITLIIGGSYGAGNYGMCGRAYSPRFLYIWPNARISVMGGEQAANVLATITKDQRAREGKQFSSADEAALKEPIIKKFEEEGNPYYSSARVWDDGIIDPADTRLVLGLSFSAALNAPIEKTDFGIFRM

binding [1]: binds
B2: 3-methylcrotonyl-CoA carboxylase 2 (MCCC2), endogenous in Hep-12 cells (enzyme, UniProt Q9HCC0 23-563)
chain: YHGDSVASLGTQPDLGSALYQENYKQMKALVNQLHERVEHIKLGGGEKARALHISRGKLLPRERIDNLIDPGSPFLELSQFAGYQLYDNEEVPGGGIITGIGRVSGVECMIIANDATVKGGAYYPVTVKKQLRAQEIAMQNRLPCIYLVDSGGAYLPRQADVFPDRDHFGRTFYNQAIMSSKNIAQIAVVMGSCTAGGAYVPAMADENIIVRKQGTIFLAGPPLVKAATGEEVSAEDLGGADLHCRKSGVSDHWALDDHHALHLTRKVVRNLNYQKKLDVTIEPSEEPLFPADELYGIVGANLKRSFDVREVIARIVDGSRFTEFKAFYGDTLVTGFARIFGYPVGIVGNNGVLFSESAKKGTHFVQLCCQRNIPLLFLQNITGFMVGREYEAEGIAKDGAKMVAAVACAQVPKITLIIGGSYGAGNYGMCGRAYSPRFLYIWPNARISVMGGEQAANVLATITKDQRAREGKQFSSADEAALKEPIIKKFEEEGNPYYSSARVWDDGIIDPADTRLVLGLSFSAALNAPIEKTDFGIFRM

B3: MCCC1 (methylcrotonyl-CoA carboxylase subunit 1), endogenous in MCCC2-KO HCC cells (enzyme, UniProt Q96RQ3 42-725)
chain: TTATGRNITKVLIANRGEIACRVMRTAKKLGVQTVAVYSEADRNSMHVDMADEAYSIGPAPSQQSYLSMEKIIQVAKTSAAQAIHPGCGFLSENMEFAELCKQEGIIFIGPPPSAIRDMGIKSTSKSIMAAAGVPVVEGYHGEDQSDQCLKEHARRIGYPVMIKAVRGGGGKGMRIVRSEQEFQEQLESARREAKKSFNDDAMLIEKFVDTPRHVEVQVFGDHHGNAVYLFERDCSVQRRHQKIIEEAPAPGIKSEVRKKLGEAAVRAAKAVNYVGAGTVEFIMDSKHNFCFMEMNTRLQVEHPVTEMITGTDLVEWQLRIAAGEKIPLSQEEITLQGHAFEARIYAEDPSNNFMPVAGPLVHLSTPRADPSTRIETGVRQGDEVSVHYDPMIAKLVVWAADRQAALTKLRYSLRQYNIVGLHTNIDFLLNLSGHPEFEAGNVHTDFIPQHHKQLLLSRKAAAKESLCQAALGLILKEKAMTDTFTLQAHDQFSPFSSSSGRRLNISYTRNMTLKDGKNNVAIAVTYNHDGSYSMQIEDKTFQVLGNLYSEGDCTYLKCSVNGVASKAKLIILENTIYLFSKEGSIEIDIPVPKYLSSVSSQETQGGPLAPMTGTIEKVFVKAGDKVKAGDSLMVMIAMKMEHTIKSPKDGTVKKVFYREGAQANRHTPLVEFEEEESDKRESE
binding [2]: binds
binding [3]: binds
binding [4]: binds

B4: SIRT4-HA (enzyme, UniProt Q9Y6E7 29-314)
chain: IGLFVPASPPLDPEKVKELQRFITLSKRLLVMTGAGISTESGIPDYRSEKVGLYARTDRRPIQHGDFVRSAPIRQRYWARNFVGWPQFSSHQPNPAHWALSTWEKLGKLYWLVTQNVDALHTKAGSRRLTELHGCMDRVLCLDCGEQTPRGVLQERFQVLNPTWSAEAHGLAPDGDVFLSEEQVRSFQVPTCVQCGGHLKPDVVFFGDTVNPDKVDFVHKRVKEADSLLVVGSSLQVYSGYRFILTAWEKKLPIAILNIGPTRSDDLACLKLNSRCGELLPLIDPC
binding (MCCC2-Flag (human)): binds

B5: SIRT4, endogenous in Hep-12 cells (enzyme, UniProt Q9Y6E7 29-314)
chain: IGLFVPASPPLDPEKVKELQRFITLSKRLLVMTGAGISTESGIPDYRSEKVGLYARTDRRPIQHGDFVRSAPIRQRYWARNFVGWPQFSSHQPNPAHWALSTWEKLGKLYWLVTQNVDALHTKAGSRRLTELHGCMDRVLCLDCGEQTPRGVLQERFQVLNPTWSAEAHGLAPDGDVFLSEEQVRSFQVPTCVQCGGHLKPDVVFFGDTVNPDKVDFVHKRVKEADSLLVVGSSLQVYSGYRFILTAWEKKLPIAILNIGPTRSDDLACLKLNSRCGELLPLIDPC
binding [5]: binds
